PubChem BioAssay AID743121, NCATS, 2013

Assay: 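Genes whose silencing strengthens cell killing by camptothecin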 (primary screen)
Cell system: MDA-MB-231 cells, a human breast cancer line
Reagent: single siRNA against human genes, 20 nM siRNA (0.8 pmol per well)
Duration: 120 h (drug added 48 h after transfection, read 72 h later)
Challenge: camptothecin 20 nM (about EC30) for 72 h; vehicle 0.1% DMSO in parallel plates
Detection: 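CellTiter-Glo ATP signal, scaled to control siRNA as percent viability; sensitisation given as log2 of untreated divided by camptothecin-treated viability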
Direction: log2 vehicle/camptothecin viability: higher = stronger sensitisation to camptothecin
Rule for the call: 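Each gene scored by redundant siRNA activity (RSA) over its individual siRNA ratios; a gene is called active at p < 0.001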
Here is one part, drawn at random, of about 26,000 reagents. Of all reagents, 167 (0.63%) were called active. 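Calls are per gene from RSA p-values that are not deposited; an individual active-marked siRNA can sensitise only weakly.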 A number with no mark means an inactive call. Reagents against one gene are numbered here. Not all columns of the deposit are shown. No sequences are given here.

target	reagent	log2 vehicle/camptothecin viability
PRSS35 (serine protease 35)	1	-0.364
PRSS35 (serine protease 35)	2	-0.219
PRSS35 (serine protease 35)	3	-0.421
PRSS35 (serine protease 35)	4	-0.329
PMM2 (phosphomannomutase 2)	1	-0.132
PMM2 (phosphomannomutase 2)	2	0.0928
PMM2 (phosphomannomutase 2)	3	-0.21
SERPING1 (serpin family G member 1)	1	0.071
SERPING1 (serpin family G member 1)	2	0.188
SERPING1 (serpin family G member 1)	3	-0.177
SERPING1 (serpin family G member 1)	4	0.608
TPTE (transmembrane phosphatase with tensin homology)	1	-0.302
TPTE (transmembrane phosphatase with tensin homology)	2	-0.0778
TPTE (transmembrane phosphatase with tensin homology)	3	-0.115
TPTE (transmembrane phosphatase with tensin homology)	4	-0.335
FABP4 (fatty acid binding protein 4)	1	0.144
FABP4 (fatty acid binding protein 4)	2	-0.252
FABP4 (fatty acid binding protein 4)	3	0.147
TRRAP (transformation/transcription domain associated protein)	1	-0.405
TRRAP (transformation/transcription domain associated protein)	2	-0.227
TRRAP (transformation/transcription domain associated protein)	3	-0.338
TRRAP (transformation/transcription domain associated protein)	4	-0.216
TRRAP (transformation/transcription domain associated protein)	5	-0.0306
HTR3A (5-hydroxytryptamine receptor 3A)	1	0.187
HTR3A (5-hydroxytryptamine receptor 3A)	2	0.225
HTR3A (5-hydroxytryptamine receptor 3A)	3	-0.313
HTR3A (5-hydroxytryptamine receptor 3A)	4	-0.0337
ITGAM (integrin subunit alpha M)	1	-0.305
ITGAM (integrin subunit alpha M)	2	-0.524
ITGAM (integrin subunit alpha M)	3	0.0941
ITGAM (integrin subunit alpha M)	4	0.0745
BAX (BCL2 associated X, apoptosis regulator)	1	0.36
BAX (BCL2 associated X, apoptosis regulator)	2	-0.176
BAX (BCL2 associated X, apoptosis regulator)	3	-0.232
MGST1 (microsomal glutathione S-transferase 1)	1	-0.0311
MGST1 (microsomal glutathione S-transferase 1)	2	-0.214
MGST1 (microsomal glutathione S-transferase 1)	3	0.121
MGST1 (microsomal glutathione S-transferase 1)	4	-0.16
COL5A2 (collagen type V alpha 2 chain)	1	0.315
COL5A2 (collagen type V alpha 2 chain)	2	-0.0023
COL5A2 (collagen type V alpha 2 chain)	3	-0.041
DPF1 (double PHD fingers 1)	1	-0.163
DPF1 (double PHD fingers 1)	2	0.226
DPF1 (double PHD fingers 1)	3	-0.24
DPF1 (double PHD fingers 1)	4	0.0258
COLQ	1	-0.344
COLQ	2	0.0254
COLQ	3	-0.628
COLQ	4	-0.0579
STX1A (syntaxin 1A)	1	-0.0744
STX1A (syntaxin 1A)	2	-0.0913
STX1A (syntaxin 1A)	3	-0.197
STX1A (syntaxin 1A)	4	-0.236
RNF34 (ring finger protein 34)	1	0.136
RNF34 (ring finger protein 34)	2	-0.127
RNF34 (ring finger protein 34)	3	0.0343
RNF34 (ring finger protein 34)	4	1.08
HSD17B2 (hydroxysteroid 17-beta dehydrogenase 2)	1	-0.466
HSD17B2 (hydroxysteroid 17-beta dehydrogenase 2)	2	-0.468
HSD17B2 (hydroxysteroid 17-beta dehydrogenase 2)	3	0.199
HSD17B2 (hydroxysteroid 17-beta dehydrogenase 2)	4	-0.423
RGS9 (regulator of G protein signaling 9)	1	0.734
RGS9 (regulator of G protein signaling 9)	2	0.549
RGS9 (regulator of G protein signaling 9)	3	0.178
RGS9 (regulator of G protein signaling 9)	4	-0.197
CARD9 (caspase recruitment domain family member 9)	1	-0.314
CARD9 (caspase recruitment domain family member 9)	2	0.865
CARD9 (caspase recruitment domain family member 9)	3	-0.283
CARD9 (caspase recruitment domain family member 9)	4	0.0474
SLC7A10	1	-0.0502
SLC7A10	2	-0.123
SLC7A10	3	0.0513
SLC7A10	4	-0.369
IL5RA (interleukin 5 receptor subunit alpha)	1	-0.335
IL5RA (interleukin 5 receptor subunit alpha)	2	-0.175
IL5RA (interleukin 5 receptor subunit alpha)	3	0.236
IL5RA (interleukin 5 receptor subunit alpha)	4	-0.19
PRB1 (proline rich protein BstNI subfamily 1)	1	-0.0426
PRB1 (proline rich protein BstNI subfamily 1)	2	0.864
PRB1 (proline rich protein BstNI subfamily 1)	3	-0.0278
PRB1 (proline rich protein BstNI subfamily 1)	4	-0.1
OR6A2 (olfactory receptor family 6 subfamily A member 2)	1	-0.382
OR6A2 (olfactory receptor family 6 subfamily A member 2)	2	0.695
OR6A2 (olfactory receptor family 6 subfamily A member 2)	3	-0.597
OR6A2 (olfactory receptor family 6 subfamily A member 2)	4	-0.664
RPS6KA1 (ribosomal protein S6 kinase A1)	1	-0.624
RPS6KA1 (ribosomal protein S6 kinase A1)	2	-0.252
RPS6KA1 (ribosomal protein S6 kinase A1)	3	-0.494
RPS6KA1 (ribosomal protein S6 kinase A1)	4	-0.0795

No new results follow: entries from further up.
target	reagent	log2 vehicle/camptothecin viability
TPTE (transmembrane phosphatase with tensin homology)	3	-0.115
TPTE (transmembrane phosphatase with tensin homology)	4	-0.335
FABP4 (fatty acid binding protein 4)	1	0.144
FABP4 (fatty acid binding protein 4)	2	-0.252
FABP4 (fatty acid binding protein 4)	3	0.147
TRRAP (transformation/transcription domain associated protein)	1	-0.405
TRRAP (transformation/transcription domain associated protein)	2	-0.227
TRRAP (transformation/transcription domain associated protein)	3	-0.338
TRRAP (transformation/transcription domain associated protein)	4	-0.216
TRRAP (transformation/transcription domain associated protein)	5	-0.0306
HTR3A (5-hydroxytryptamine receptor 3A)	1	0.187
